# Results reported in patent publication US20250281622A1.
# No constants are given. Whether binding was seen depends on the method and setting. Some binding calls cover weakened binding; strength is not graded here.
# B1: ABX1198 (SEQ ID NO: 509) (designed binder)
# chain: MLPAPKNLVVSRVTEDSARLSWTAPDAAFDSFYIAYAEPRPDGEAILLQVPGSCRSYDLTGLKPGTEYSVLIHGVKGGLLSSPLTAIFTT
# Target: human CD71 (membrane protein expressed on cells) (human) (UniProt P02786)
# Assay: Membrane Proteome Array, flow cytometry on QT6 cells expressing human membrane proteins
binder,measurement,value
B1,binding,binds
